Chains of the proteins cited; added tags and fusions are not shown.
UniProt P41146, whole entry: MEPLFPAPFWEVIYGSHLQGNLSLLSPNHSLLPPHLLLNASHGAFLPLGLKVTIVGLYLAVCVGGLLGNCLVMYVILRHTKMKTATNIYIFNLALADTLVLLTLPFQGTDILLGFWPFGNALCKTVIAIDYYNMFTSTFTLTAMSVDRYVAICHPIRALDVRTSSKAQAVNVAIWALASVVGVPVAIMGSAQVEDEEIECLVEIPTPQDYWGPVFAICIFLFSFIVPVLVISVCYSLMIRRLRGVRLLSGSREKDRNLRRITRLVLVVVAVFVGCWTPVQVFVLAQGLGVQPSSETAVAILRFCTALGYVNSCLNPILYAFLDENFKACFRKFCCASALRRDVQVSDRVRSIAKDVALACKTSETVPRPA
UniProt P35372, whole entry: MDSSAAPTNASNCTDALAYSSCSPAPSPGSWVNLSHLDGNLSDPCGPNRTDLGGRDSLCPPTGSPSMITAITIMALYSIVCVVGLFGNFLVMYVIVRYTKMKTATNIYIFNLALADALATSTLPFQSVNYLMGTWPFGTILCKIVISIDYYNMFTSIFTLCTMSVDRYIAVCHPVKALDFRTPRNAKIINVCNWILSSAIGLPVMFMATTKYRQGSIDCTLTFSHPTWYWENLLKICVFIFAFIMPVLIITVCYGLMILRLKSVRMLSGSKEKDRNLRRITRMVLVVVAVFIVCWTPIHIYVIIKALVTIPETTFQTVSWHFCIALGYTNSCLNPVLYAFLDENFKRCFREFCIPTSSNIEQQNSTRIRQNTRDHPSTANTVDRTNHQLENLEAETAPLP

According to patent publication US10202345B2, “Substituted azaspiro(4.5)decane derivatives” (priority 2014, dated 2019):

Legend:
[1] = system: rats; assay: Analgesia in the tail flick (focal ray) test in rats, intravenous administration
[2] = target: ORL1 receptor (Homo sapiens, UniProt P41146); assay: ORL1 receptor binding assay with 3H-nociceptin/orphanin FQ (WGA-SPA beads); conditions: for Ki: read-out: Ki (ORL1) mean, mean; for % inhibition (ORL1) [1 μM]: test concentration 1 μM
[3] = target: human μ opiate receptor (Homo sapiens, UniProt P35372); assay: μ opiate receptor binding assay with [3H]-naloxone (WGA-SPA beads); conditions: for Ki: read-out: Ki (μ) mean [μm], mean; for % inhibition (μ) [1 μM]: test concentration 1 μM

SMILES | Tail flick rat, i.v. ED50 rat [μg/kg] [1] [µg/kg] | Ki [2] [nM] | % inhibition (ORL1) [1 μM] [2] [%] | Ki [3] [nM] | % inhibition (μ) [1 μM] [3] [%]
CN(C)C1(c2ccccc2)CCC2(CC1)CC(=O)N(CCC1CCCO1)C2 (stereo not drawn) | 6.6 | – | – | – | –
CN(C)C1(c2cccs2)CCC2(CC1)CNC(=O)C2 (single isomer, unassigned) [23] | – | 68 | 58 | 50 | 84.5
Cc1ccc(C2(N(C)C)CCC3(CC2)CC(=O)N(CC2CCCC2)C3)s1 (single isomer, unassigned) [159] | – | 91.5 | 31.5 | 185 | 32.5

The structures given here were assigned with low confidence; some may be wrong.
